This continues a long series; more values of the same kind are listed elsewhere.
Tested on: Lactobacillus rennini DSM 20253
Experiment: Antimicrobial action of licoricidin in liquid seasoning (1), lactic acid bacteria A
Format: cell-based
Set-up: key: A: The bacterial count decreases to less than 10% of the bacterial count of the control group.; B: The bacterial count decreases to 10% or more and less than 50% of the bacterial count of the control group.; C: The bacterial count decreases to 50% or more and less than 100% of the bacterial count of control group.; D: The bacterial count is the same as the bacterial count of the control group
Experimental: Commercially available whole soybean soy sauce (produced by Kikkoman Corporation) was electrodialyzed and then concentrated under reduced pressure to obtain soy sauce at a salt concentration of 0% (w/v) and an alcohol concentration of 0% (v/v). Then, salt and/or alcohol was added to the above-mentioned obtained soy sauce, and the mixture was heat-treated to produce soy sauces at salt concentrations and alcohol concentrations shown in the following Table 5. The pHs of the soy sauces were 4.9 to 5.0. […]
Licoricidin (produced by ChemFaces) was added to each of the liquid seasonings produced in the above-mentioned (1) to concentrations of 1 ppm, 5 ppm, 10 ppm, 25 ppm, and 50 ppm. Lactic acid bacteria described in the following Table 9 were then added to 10^6 to 10^7 cells/mL and cultured at 30° C. for 7 days. After the culture, the number of lactic acid bacteria was measured using the GAM agar medium “Nissui”. Liquid seasoning to which licoricidin was not added was used as a control group, and the antimicrobial activity was evaluated in comparison with the number of lactic acid bacteria in the control group. The evaluation was performed using the criterion shown below.
• A: The bacterial count decreases to less than 10% of the bacterial count of the control group. • B: The bacterial count decreases to 10% or more and less than 50% of the bacterial count of the control group. • C: The bacterial count decreases to 50% or more and less than 100% of the bacterial count of control group. • D: The bacterial count is the same as the bacterial count of the control group.

## COc1c(CC=C(C)C)c(O)cc2c1C[C@H](c1ccc(O)c(CC=C(C)C)c1O)CO2 [Licoricidin, 4-[(R)-7-hydroxy-5-methoxy-6-(3-methyl-2-butenyl)chroman-3-yl]-2-(3-methyl-2-butenyl)-1,3-benzenediol]
Bonito stock (salt 0.2% (w/v), alcohol 0.15% (v/v), pH 6.1), licoricidin 1 ppm
  Antimicrobial activity: C (The bacterial count decreases to 50% or more and less than 100% of the bacterial count of control group.)
Bonito stock (salt 0.2% (w/v), alcohol 0.15% (v/v), pH 6.1), licoricidin 5 ppm
  Antimicrobial activity: A (The bacterial count decreases to less than 10% of the bacterial count of the control group.)
Bonito stock (salt 0.2% (w/v), alcohol 0.15% (v/v), pH 6.1), licoricidin 10 ppm
  Antimicrobial activity: A (The bacterial count decreases to less than 10% of the bacterial count of the control group.)
Bonito stock (salt 0.2% (w/v), alcohol 0.15% (v/v), pH 6.1), licoricidin 25 ppm
  Antimicrobial activity: A (The bacterial count decreases to less than 10% of the bacterial count of the control group.)
Bonito stock (salt 0.2% (w/v), alcohol 0.15% (v/v), pH 6.1), licoricidin 50 ppm
  Antimicrobial activity: A (The bacterial count decreases to less than 10% of the bacterial count of the control group.)
Japanese seasoned soup stock (salt 3% (w/v), alcohol 0.4% (v/v), pH 5.5), licoricidin 1 ppm
  Antimicrobial activity: D
Japanese seasoned soup stock (salt 3% (w/v), alcohol 0.4% (v/v), pH 5.5), licoricidin 5 ppm
  Antimicrobial activity: B (The bacterial count decreases to 10% or more and less than 50% of the bacterial count of the control group.)
Japanese seasoned soup stock (salt 3% (w/v), alcohol 0.4% (v/v), pH 5.5), licoricidin 10 ppm
  Antimicrobial activity: A (The bacterial count decreases to less than 10% of the bacterial count of the control group.)
Japanese seasoned soup stock (salt 3% (w/v), alcohol 0.4% (v/v), pH 5.5), licoricidin 25 ppm
  Antimicrobial activity: A (The bacterial count decreases to less than 10% of the bacterial count of the control group.)
Japanese seasoned soup stock (salt 3% (w/v), alcohol 0.4% (v/v), pH 5.5), licoricidin 50 ppm
  Antimicrobial activity: A (The bacterial count decreases to less than 10% of the bacterial count of the control group.)
Sauce (salt 5.3% (w/v), alcohol 0.8% (v/v), pH 5.0), licoricidin 1 ppm
  Antimicrobial activity: D
Sauce (salt 5.3% (w/v), alcohol 0.8% (v/v), pH 5.0), licoricidin 5 ppm
  Antimicrobial activity: D
Sauce (salt 5.3% (w/v), alcohol 0.8% (v/v), pH 5.0), licoricidin 10 ppm
  Antimicrobial activity: A (The bacterial count decreases to less than 10% of the bacterial count of the control group.)
Sauce (salt 5.3% (w/v), alcohol 0.8% (v/v), pH 5.0), licoricidin 25 ppm
  Antimicrobial activity: A (The bacterial count decreases to less than 10% of the bacterial count of the control group.)
Sauce (salt 5.3% (w/v), alcohol 0.8% (v/v), pH 5.0), licoricidin 50 ppm
  Antimicrobial activity: A (The bacterial count decreases to less than 10% of the bacterial count of the control group.)
Soy sauce, salt 0% (w/v), alcohol 0% (v/v), licoricidin 1 ppm
  Antimicrobial activity: D
Soy sauce, salt 0% (w/v), alcohol 0% (v/v), licoricidin 5 ppm
  Antimicrobial activity: B (The bacterial count decreases to 10% or more and less than 50% of the bacterial count of the control group.)
Soy sauce, salt 0% (w/v), alcohol 0% (v/v), licoricidin 10 ppm
  Antimicrobial activity: B (The bacterial count decreases to 10% or more and less than 50% of the bacterial count of the control group.)
Soy sauce, salt 0% (w/v), alcohol 0% (v/v), licoricidin 25 ppm
  Antimicrobial activity: A (The bacterial count decreases to less than 10% of the bacterial count of the control group.)
Soy sauce, salt 0% (w/v), alcohol 0% (v/v), licoricidin 50 ppm
  Antimicrobial activity: A (The bacterial count decreases to less than 10% of the bacterial count of the control group.)
Soy sauce, salt 0% (w/v), alcohol 5% (v/v), licoricidin 1 ppm
  Antimicrobial activity: C (The bacterial count decreases to 50% or more and less than 100% of the bacterial count of control group.)
Soy sauce, salt 0% (w/v), alcohol 5% (v/v), licoricidin 5 ppm
  Antimicrobial activity: B (The bacterial count decreases to 10% or more and less than 50% of the bacterial count of the control group.)
Soy sauce, salt 0% (w/v), alcohol 5% (v/v), licoricidin 10 ppm
  Antimicrobial activity: B (The bacterial count decreases to 10% or more and less than 50% of the bacterial count of the control group.)
Soy sauce, salt 0% (w/v), alcohol 5% (v/v), licoricidin 25 ppm
  Antimicrobial activity: A (The bacterial count decreases to less than 10% of the bacterial count of the control group.)
Soy sauce, salt 0% (w/v), alcohol 5% (v/v), licoricidin 50 ppm
  Antimicrobial activity: A (The bacterial count decreases to less than 10% of the bacterial count of the control group.)
Soy sauce, salt 0% (w/v), alcohol 10% (v/v), licoricidin 1 ppm
  Antimicrobial activity: C (The bacterial count decreases to 50% or more and less than 100% of the bacterial count of control group.)
Soy sauce, salt 0% (w/v), alcohol 10% (v/v), licoricidin 5 ppm
  Antimicrobial activity: C (The bacterial count decreases to 50% or more and less than 100% of the bacterial count of control group.)
Soy sauce, salt 0% (w/v), alcohol 10% (v/v), licoricidin 10 ppm
  Antimicrobial activity: C (The bacterial count decreases to 50% or more and less than 100% of the bacterial count of control group.)
Soy sauce, salt 0% (w/v), alcohol 10% (v/v), licoricidin 25 ppm
  Antimicrobial activity: A (The bacterial count decreases to less than 10% of the bacterial count of the control group.)
Soy sauce, salt 0% (w/v), alcohol 10% (v/v), licoricidin 50 ppm
  Antimicrobial activity: A (The bacterial count decreases to less than 10% of the bacterial count of the control group.)
Soy sauce, salt 4% (w/v), alcohol 0% (v/v), licoricidin 1 ppm
  Antimicrobial activity: B (The bacterial count decreases to 10% or more and less than 50% of the bacterial count of the control group.)
Soy sauce, salt 4% (w/v), alcohol 0% (v/v), licoricidin 5 ppm
  Antimicrobial activity: A (The bacterial count decreases to less than 10% of the bacterial count of the control group.)
Soy sauce, salt 4% (w/v), alcohol 0% (v/v), licoricidin 10 ppm
  Antimicrobial activity: A (The bacterial count decreases to less than 10% of the bacterial count of the control group.)
Soy sauce, salt 4% (w/v), alcohol 0% (v/v), licoricidin 25 ppm
  Antimicrobial activity: A (The bacterial count decreases to less than 10% of the bacterial count of the control group.)
Soy sauce, salt 4% (w/v), alcohol 0% (v/v), licoricidin 50 ppm
  Antimicrobial activity: A (The bacterial count decreases to less than 10% of the bacterial count of the control group.)
Soy sauce, salt 4% (w/v), alcohol 5% (v/v), licoricidin 1 ppm
  Antimicrobial activity: C (The bacterial count decreases to 50% or more and less than 100% of the bacterial count of control group.)
Soy sauce, salt 4% (w/v), alcohol 5% (v/v), licoricidin 5 ppm
  Antimicrobial activity: A (The bacterial count decreases to less than 10% of the bacterial count of the control group.)
Soy sauce, salt 4% (w/v), alcohol 5% (v/v), licoricidin 10 ppm
  Antimicrobial activity: A (The bacterial count decreases to less than 10% of the bacterial count of the control group.)
Soy sauce, salt 4% (w/v), alcohol 5% (v/v), licoricidin 25 ppm
  Antimicrobial activity: A (The bacterial count decreases to less than 10% of the bacterial count of the control group.)
Soy sauce, salt 4% (w/v), alcohol 5% (v/v), licoricidin 50 ppm
  Antimicrobial activity: A (The bacterial count decreases to less than 10% of the bacterial count of the control group.)
